# This is one part of the list.
# The chains behind the UniProt entries cited, without tags or fusion partners.
# UniProt Q0JBA9, entry or part of it: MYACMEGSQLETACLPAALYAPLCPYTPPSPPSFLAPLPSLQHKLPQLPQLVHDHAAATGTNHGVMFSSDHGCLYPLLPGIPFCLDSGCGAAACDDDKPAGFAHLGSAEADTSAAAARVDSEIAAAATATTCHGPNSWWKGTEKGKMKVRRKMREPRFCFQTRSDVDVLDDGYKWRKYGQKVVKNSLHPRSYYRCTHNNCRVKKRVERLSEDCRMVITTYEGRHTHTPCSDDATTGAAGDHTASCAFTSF
# Biological target: OsWRKY34 (Oryza sativa, UniProt Q0JBA9 1-250)
# Experiment: protein-binding microarray (RPBM); PBS, 2% BSA, 51.3 ng/ul salmon testes DNA, 50 uM zinc acetate, 200 nM TF, 25 C, 1 h; high values mean tight binding
# Conditions: protein: recombinant; tags: N-terminal polyhistidine and DsRed monomer fusion (pET32a); label: CyDye5-dUTP incorporated in the synthesized complementary strand; 3' TTTTT single-stranded linker to array surface; dsDNA, one strand shown
# How it was run: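 Using Ni–NTA, transcription factors fused N-terminally to polyhistidine and DsRed were purified after expression in E. coli BL21-CodonPlus. These were incubated at 200 nM with a blocked, double-stranded custom Agilent array for 1 h at 25 °C in a buffer containing 50 µM zinc acetate, and the array was washed. The binding signal is per-feature fluorescence intensity (arbitrary units) on an Axon 4000B scanner.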
row,Sequence,binding signal
1,GCTGCTTGTTTGTTTCCCAATCTCTCATTTCTCTCTCTCACGGAGTCACCTAGTGCAG,14900 fluorescence intensity (a.u.)
2,TCCAACGCGCCACACTATTGCCTCTTCTCATCACCACTCGCGGAGTCACCTAGTGCAG,8860 fluorescence intensity (a.u.)
3,GGGAAACTCTTCCGTCACCGCCTACCTCACCTCCTCCTACCGGAGTCACCTAGTGCAG,8430 fluorescence intensity (a.u.)
4,TTAGTCGAAAAGTCAACGGTGTTATACATTAAAATACGGACGGAGTCACCTAGTGCAG,8390 fluorescence intensity (a.u.)
5,GCTGAATTTGTCTTTTTATATCTCGACGTGTGAGTTGAGTCGGAGTCACCTAGTGCAG,8590 fluorescence intensity (a.u.)
6,CTCATTCCTTCGCTTCTCTCACCTGCTTGTTTGTTCGTCTCGGAGTCACCTAGTGCAG,10500 fluorescence intensity (a.u.)
7,GATGTACAGATCGCTGGGTGTTTGTTTTGATTTGTTTCAACGGAGTCACCTAGTGCAG,13600 fluorescence intensity (a.u.)
8,GAGTTTTAAGGAATAATGTGGGTTTTATGGAAGTTACAAGCGGAGTCACCTAGTGCAG,8490 fluorescence intensity (a.u.)
9,CCGTATAGCACCCTCTCGCTGTATACCACCCGGGCGGCCACGGAGTCACCTAGTGCAG,8050 fluorescence intensity (a.u.)
10,CTCTCTCGCCGGTGCGGCCGGCTGCCTCTCTCGCCGGTCCCGGAGTCACCTAGTGCAG,10200 fluorescence intensity (a.u.)
11,TTTCTGGGTGTTGGGAGGTACCATTAAATTGTGCTTGCATCGGAGTCACCTAGTGCAG,10300 fluorescence intensity (a.u.)
12,CTCATCTCTACACCTGCAGCCCACGCGACCCACCACTGCGCGGAGTCACCTAGTGCAG,9580 fluorescence intensity (a.u.)
13,GTCTTTTCTTCAAGGTTATCTTTTTTGTCCCTTTTTTATTCGGAGTCACCTAGTGCAG,15200 fluorescence intensity (a.u.)
14,ATCGGATGGGTGGGCGCAAAGGATGACAGCTGGAGTGGTACGGAGTCACCTAGTGCAG,11400 fluorescence intensity (a.u.)
15,GCATCGGCTCCCATCATCATGACTCGGCCGGAGTTGCTCACGGAGTCACCTAGTGCAG,9110 fluorescence intensity (a.u.)
16,GTTTATTTTTTAGTCTTTGCTTTTTTATTGCTAAGTACACCGGAGTCACCTAGTGCAG,9300 fluorescence intensity (a.u.)
17,ACTTATATTTAACACCTTCTCAGAATGTTTATTTATTATTCGGAGTCACCTAGTGCAG,9180 fluorescence intensity (a.u.)
18,AAAAAGATTAATTTGGGCGGGGAGAGAGATTCGCAAAGCGCGGAGTCACCTAGTGCAG,8160 fluorescence intensity (a.u.)
19,GCCATTCTCTCCGCGACGGTCTCGTCTTCCCCACCCCTCGCGGAGTCACCTAGTGCAG,8510 fluorescence intensity (a.u.)
20,TTTCTGCTATAAGTTGGATGGATCTTTCTTTATTCAATAACGGAGTCACCTAGTGCAG,8100 fluorescence intensity (a.u.)
21,TTAGTTTTGATTCTGTTCAGAAATCGGTGACCCTTTTCATCGGAGTCACCTAGTGCAG,9820 fluorescence intensity (a.u.)

row,Sequence,binding signal
1,ACACAGTATTTAACCCATGTTCTGCTTCACTGTATTTTTGCGGAGTCACCTAGTGCAG,12300 fluorescence intensity (a.u.)
2,CATATCTAACTTTTGACCATCCGTTTTATTTAAAAAAATACGGAGTCACCTAGTGCAG,8310 fluorescence intensity (a.u.)
3,TGCCACGCCCGTTCGTCCATGTCCTCGGCGGCGGTGGCGGCGGAGTCACCTAGTGCAG,10100 fluorescence intensity (a.u.)
4,AGTGGTGCCTGGCCCGTTCGTCGCATTCACAATCACACACCGGAGTCACCTAGTGCAG,10500 fluorescence intensity (a.u.)
5,AATTAAAGAGGTTTACCAGCCCAGTTGACCAATACCAACCCGGAGTCACCTAGTGCAG,8340 fluorescence intensity (a.u.)
6,CCTCTAACCGGTCATCCGTCCTTCATTTGCCGTATAGAAGCGGAGTCACCTAGTGCAG,10200 fluorescence intensity (a.u.)
7,GTCCTTCCATCAACCATGTGCACGCCCGTTTTCTGTTCTACGGAGTCACCTAGTGCAG,10500 fluorescence intensity (a.u.)
8,TATCGTACAAGCAACTCCTCTGCACCTCTTTTCTTTAAAACGGAGTCACCTAGTGCAG,9120 fluorescence intensity (a.u.)
9,AAATAGGGTTGTTCATCATTATTTTTGCGGGTTCATTAAGCGGAGTCACCTAGTGCAG,8420 fluorescence intensity (a.u.)
10,GCCAGCTAAGACAATGACCATTTACCTACAGATACTATTCCGGAGTCACCTAGTGCAG,9190 fluorescence intensity (a.u.)
11,GTAGCTCGTCGTCACTGCCCATAGTACTCTGGCTTAGCTACGGAGTCACCTAGTGCAG,8030 fluorescence intensity (a.u.)
12,TTCCTCCCTCGCCTCTTCGCGCCGGCGAGGTCCCACCTTCCGGAGTCACCTAGTGCAG,8850 fluorescence intensity (a.u.)
13,CCTTTTCCTTTTTATTACATTATATCGTTGTCTTTTTCTACGGAGTCACCTAGTGCAG,9960 fluorescence intensity (a.u.)
14,TGTACCGGCAGCAGGACCCGTTATTCCTGGCGTCGCGCGTCGGAGTCACCTAGTGCAG,8040 fluorescence intensity (a.u.)
15,CTCTTGCTGTGTCTTGCGCCGATCCGTCTTTGGTCTCTGCCGGAGTCACCTAGTGCAG,11400 fluorescence intensity (a.u.)
16,TCTCCCTTCCTGCGACTTCGTTTCGTTTTGGGTTCGTTTTCGGAGTCACCTAGTGCAG,11700 fluorescence intensity (a.u.)
17,CGCACCAAACGCACACACCGCGCGCGTCGGCGGCCATGGCCGGAGTCACCTAGTGCAG,8190 fluorescence intensity (a.u.)
18,TTTTGCCCTCTAAGATGCACTTTTCTCTGTTTGTTTCAACCGGAGTCACCTAGTGCAG,8140 fluorescence intensity (a.u.)
19,GCTGACGTGGCCAGCTGATATGTGGGTCTCAAGCTGACTCCGGAGTCACCTAGTGCAG,9490 fluorescence intensity (a.u.)
20,TAAACTTTACATCTCATCCTATAGTTGTTTTCATCGTTGCCGGAGTCACCTAGTGCAG,9170 fluorescence intensity (a.u.)
21,ATGCAATTGTTCTGTTACTGTAGTTCCTCTCTGTTTTGTTCGGAGTCACCTAGTGCAG,10400 fluorescence intensity (a.u.)

row,Sequence,binding signal
1,CTCTCTCTCTGCTGCTGCTCTCTAATCAGTAACCAGTAGTCGGAGTCACCTAGTGCAG,9580 fluorescence intensity (a.u.)
2,ATCTGTATTTTTGTCGGTTCTTAAGATCGTTCAGTTTTGGCGGAGTCACCTAGTGCAG,9820 fluorescence intensity (a.u.)
3,CCTCGTTCTTACCATCTCCTCCACCATCCTTATCCTTATCCGGAGTCACCTAGTGCAG,8510 fluorescence intensity (a.u.)
4,CGCGCCACCAGCTCATCATTGTCGACCAATCTTCTTTTCTCGGAGTCACCTAGTGCAG,10100 fluorescence intensity (a.u.)
5,CACGACATGTTCTGGATGGTTTCTTTTGCGACATATTTTCCGGAGTCACCTAGTGCAG,8030 fluorescence intensity (a.u.)
6,ACCACCACCACCGCCGCCGCGCGGACCAACCAACCAATCACGGAGTCACCTAGTGCAG,11400 fluorescence intensity (a.u.)
7,ACCCCACGTACACCCCATGCTTCGTGACCGTGTGAGCTCTCGGAGTCACCTAGTGCAG,8020 fluorescence intensity (a.u.)
8,AGGTGGTGTTTGGTTGGAGGGGCTAAAGTGGGGCTAAACTCGGAGTCACCTAGTGCAG,20000 fluorescence intensity (a.u.)
9,CACTGAGCCCGCATCGTCTCGTCTCCCTCTCCCTCTCCCACGGAGTCACCTAGTGCAG,8430 fluorescence intensity (a.u.)
10,GTCTATGGTTCTCGCGTGGTGCCGAGCCGCGTCCCTTTTTCGGAGTCACCTAGTGCAG,12400 fluorescence intensity (a.u.)
11,GTTCTTTTCTTTAGCTCCAAAATACAAATTCCTCATTTTTCGGAGTCACCTAGTGCAG,11000 fluorescence intensity (a.u.)
12,CCACCCACCACTTCTTCTCTACCTAGCTCTCTCTTTCTCGCGGAGTCACCTAGTGCAG,8210 fluorescence intensity (a.u.)
13,GTTTTACACTATTCACGTTCAACGTTTGACCGTTCGTCTTCGGAGTCACCTAGTGCAG,13400 fluorescence intensity (a.u.)
14,TAGGGTTAGGGTTTGCTCCTCCTCCTCTTCCCTCTACACGCGGAGTCACCTAGTGCAG,8990 fluorescence intensity (a.u.)
15,GCCTTTCTGTTTCAGTAGTCCTCTCTTTGACGCTTTACTCCGGAGTCACCTAGTGCAG,11600 fluorescence intensity (a.u.)
16,GGTTTTCCATGCCCTCTATCGTTCCAAATTCTCTTAAGATCGGAGTCACCTAGTGCAG,8100 fluorescence intensity (a.u.)
17,CCAACAAATTTTGTGTGACTACAACCTGCCTACAACCTGTCGGAGTCACCTAGTGCAG,8790 fluorescence intensity (a.u.)
18,TTGAACTGTATTGGTTTTGGTTAGTCTTCTAGTTTGTTATCGGAGTCACCTAGTGCAG,8100 fluorescence intensity (a.u.)
19,AGTTGTTGCCTGCACTACACAGCTGATGCACTGCCGGTTCCGGAGTCACCTAGTGCAG,8640 fluorescence intensity (a.u.)
20,GCACCCTACCGTAAAAAGTCAACAGTAGCCATTCCACACACGGAGTCACCTAGTGCAG,9880 fluorescence intensity (a.u.)
21,GGTGTAGGTGCTGTTACTATTGGAGACTAGACTCAATGTGCGGAGTCACCTAGTGCAG,8420 fluorescence intensity (a.u.)

row,Sequence,binding signal
1,TATATTTTCCATCCCTTGTACGCATATATGCCCTTTAGGCCGGAGTCACCTAGTGCAG,9070 fluorescence intensity (a.u.)
2,GACAACTTGAAATATATATTTTTATTCTCGTTTAGGACTCCGGAGTCACCTAGTGCAG,8590 fluorescence intensity (a.u.)
3,GCTCTTCGACGTGAAGCCGCTCCAGCACCTGCAGCTCCCGCGGAGTCACCTAGTGCAG,8210 fluorescence intensity (a.u.)
4,CTATCTTTCGCTGTTGCTGTTTGAGAAGTGTTTTAATTATCGGAGTCACCTAGTGCAG,8570 fluorescence intensity (a.u.)
5,GTTTGTTCATCGGCCAGCTAGCTATACCTGCAGGTAGCTCCGGAGTCACCTAGTGCAG,8460 fluorescence intensity (a.u.)
6,TGGTCCATTTCCAGCGTGAAGCTGGTCGTACTCGTAGTCGCGGAGTCACCTAGTGCAG,11400 fluorescence intensity (a.u.)
7,GCATTTTTTTTTACTCTGGCACGGTCTCCGAGATGCTACTCGGAGTCACCTAGTGCAG,10300 fluorescence intensity (a.u.)
8,GATATCCCCTTAGAGTTTAATCCACTCTCGAGCTTAATTCCGGAGTCACCTAGTGCAG,8760 fluorescence intensity (a.u.)
9,AGGGGTTCGCTTTTCTAGATTCAGTCTGTCAGCGGCGACGCGGAGTCACCTAGTGCAG,9570 fluorescence intensity (a.u.)
10,GTTGGATATAGTGGTTTATGCGTAGTTTTGCTCCACAGGTCGGAGTCACCTAGTGCAG,9410 fluorescence intensity (a.u.)
11,AACATGTACCTTCGTTTTCTTTTAGCCTCACATGATAGTACGGAGTCACCTAGTGCAG,8840 fluorescence intensity (a.u.)
12,ATGTGCACTTATGCATCTATAATCTCTGTCGTGTATTTTTCGGAGTCACCTAGTGCAG,10100 fluorescence intensity (a.u.)
13,ATATGTCAAGTTTGGTGGATATAGTTGTTTGGCCTTTTACCGGAGTCACCTAGTGCAG,11700 fluorescence intensity (a.u.)
14,ATGCCTTCCATTGAGCAGTTCGGTGTTCCGCCGTTGACTTCGGAGTCACCTAGTGCAG,13500 fluorescence intensity (a.u.)
15,ACCCTGTCCCTGTCCTGTAGCCATCACCAGTCTTATTATTCGGAGTCACCTAGTGCAG,13100 fluorescence intensity (a.u.)
16,ATATAGACGGTTACTTTTTTTTGTGTAGTGCTGGAGAAATCGGAGTCACCTAGTGCAG,8810 fluorescence intensity (a.u.)
17,AATGGCGACCCAAAACCGGGGTACTGTATCGAAATTCAAACGGAGTCACCTAGTGCAG,8450 fluorescence intensity (a.u.)
18,AGATTAATTTCATTTCTATCTTCCTGTCTAACCTCAGTTCCGGAGTCACCTAGTGCAG,8570 fluorescence intensity (a.u.)
19,CCTCTGTTCCAGCCCATACACCCGACCTGCTGAGATACAACGGAGTCACCTAGTGCAG,8370 fluorescence intensity (a.u.)
20,AATTACACTTTTTTGGATGTCCTGTAACAAATTTTGCGGACGGAGTCACCTAGTGCAG,8220 fluorescence intensity (a.u.)
21,CTCCCAACCGAAGCGGCCTATATTAGCGTGTAATTAATTACGGAGTCACCTAGTGCAG,9180 fluorescence intensity (a.u.)

# A stretch from further up:
row,Sequence,binding signal
3,GCTCTTCGACGTGAAGCCGCTCCAGCACCTGCAGCTCCCGCGGAGTCACCTAGTGCAG,8210 fluorescence intensity (a.u.)
4,CTATCTTTCGCTGTTGCTGTTTGAGAAGTGTTTTAATTATCGGAGTCACCTAGTGCAG,8570 fluorescence intensity (a.u.)
5,GTTTGTTCATCGGCCAGCTAGCTATACCTGCAGGTAGCTCCGGAGTCACCTAGTGCAG,8460 fluorescence intensity (a.u.)
6,TGGTCCATTTCCAGCGTGAAGCTGGTCGTACTCGTAGTCGCGGAGTCACCTAGTGCAG,11400 fluorescence intensity (a.u.)
7,GCATTTTTTTTTACTCTGGCACGGTCTCCGAGATGCTACTCGGAGTCACCTAGTGCAG,10300 fluorescence intensity (a.u.)
8,GATATCCCCTTAGAGTTTAATCCACTCTCGAGCTTAATTCCGGAGTCACCTAGTGCAG,8760 fluorescence intensity (a.u.)
9,AGGGGTTCGCTTTTCTAGATTCAGTCTGTCAGCGGCGACGCGGAGTCACCTAGTGCAG,9570 fluorescence intensity (a.u.)
10,GTTGGATATAGTGGTTTATGCGTAGTTTTGCTCCACAGGTCGGAGTCACCTAGTGCAG,9410 fluorescence intensity (a.u.)
11,AACATGTACCTTCGTTTTCTTTTAGCCTCACATGATAGTACGGAGTCACCTAGTGCAG,8840 fluorescence intensity (a.u.)
12,ATGTGCACTTATGCATCTATAATCTCTGTCGTGTATTTTTCGGAGTCACCTAGTGCAG,10100 fluorescence intensity (a.u.)
13,ATATGTCAAGTTTGGTGGATATAGTTGTTTGGCCTTTTACCGGAGTCACCTAGTGCAG,11700 fluorescence intensity (a.u.)
14,ATGCCTTCCATTGAGCAGTTCGGTGTTCCGCCGTTGACTTCGGAGTCACCTAGTGCAG,13500 fluorescence intensity (a.u.)
